In ChEMBL document CHEMBL5712922, “Synergistic effects of type I PRMT and PARP inhibitors against non-small cell lung cancer cells” (Clin Epigenetics, 2021):

Tested on: A549
Experiment: Antiproliferative against human A549 cells assessed as viable cells pretreated with MS023 for 24 hrs followed by compound addition at 10 uM measured after for 24 hrs relative to control
Details: A549, 24 h, read-out: Activity

With `Cc1ccc(C(=O)NCCCCCC(=O)Nc2ccccc2N)cc1` as the compound, how does the viability at 10 µM read?
The viability at 10 µM was 54.2%.
